PubChem BioAssay AID686943, Drosophila RNAi Screening Center, 2013

- Test: 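Fly genes whose loss alters ERK activation after insulin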 (primary screen)
- System: Drosophila S2R+ haemocyte-like cells expressing YFP-tagged ERK (Rolled)
- Knock-down reagent: long dsRNA against Drosophila genes
- Challenge: insulin stimulation versus unstimulated cells; dose and duration not given
- Read-out: 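Per-plate z-scores of phospho-ERK immunostaining normalised to YFP-tagged ERK, measured with and without insulin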
- Direction: replicate 1, z-score of dpERK with insulin and replicate 2, z-score of dpERK with insulin: higher = more active ERK per ERK-YFP after insulin; replicate 1, z-score of dpERK under basal conditions: higher = more basal active ERK per ERK-YFP; replicate 1, z-score of ERK-YFP with insulin: higher = more YFP-tagged ERK signal
The screen tested about 23,000 reagents; this is an unselected part of those that have a named target and a result. 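Extra replicates exist only for a retested subset of genes; insulin dose and duration not given; both raised and lowered dpERK matter.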 Names joined by + are all predicted targets of the reagent. No sequences are given here. Not given: the amount of reagent, the time to read-out.

predicted target | DRSC id | replicate 1, z-score of dpERK with insulin | replicate 2, z-score of dpERK with insulin | replicate 1, z-score of dpERK under basal conditions | replicate 1, z-score of ERK-YFP with insulin
CG12783 | DRSC14538 | -0.21 | -0.53 | 0.53 | 0.95
CG17807 | DRSC04296 | -0.02 | -0.1 | -0.29 | 0.73
CG11929 | DRSC00339 | 0.03 | 0.45 | -0.36 | -0.83
CG5111 | DRSC15717 | -0.84 | -0.02 | 0.36 | 0.05
bonsai | DRSC04453 | -1.12 | 0.07 | -1.12 | 2.34
CadN | DRSC03286 | 0.75 | 0.43 | -0.84 | -0.14
Tsen34 + Trl | DRSC10014 | -0.38 | 0.17 | -0.08 | 0.12
CNMaR | DRSC08992 | 0.51 | 0.16 | -0.76 | 0.99
CNMaR | DRSC10224 | -0.06 | 0.67 | 0.04 | 0.15
CG5793 + Obp93a | DRSC15220 | 0.94 | 0.26 | -0.16 | -0.31
ND-ACP | DRSC08724 | 1.48 | 0.13 | 0.36 | 0.11
mRpL41 | DRSC06257 | -0.49 | 0.11 | -1.22 | 1.13
CG5554 | DRSC04513 | -1.22 | 0.05 | -0.8 | -0.31
Prosbeta4R1 | DRSC00502 | -0.95 | -0.24 | -0.38 | 0.26
Or59c | DRSC04633 | -0.05 | 0.32 | -0.76 | -0.17
Cc2d2a | DRSC06750 | -0.48 | 0.13 | 0.31 | 0.48
Cc2d2a | DRSC06779 | -0.08 | 0.61 | 0.71 | -0.47
eIF1 | DRSC08520 | 0.77 | 0.86 | -1.35 | 0.44
CG43610 | DRSC00949 | -1.02 | -1.11 | -0.32 | -0.48
Rack1 | DRSC03405 | 1.86 | 2.38 | 1.49 | 1.33
Nrk | DRSC07480 | 0.31 | 0.5 | 0.78 | -0.17
CG4927 | DRSC06903 | 0.03 | -0.13 | 1.89 | 0.09
cup | DRSC03516 | -1.12 | -0.02 | -0.43 | -0.32
sro | DRSC14469 | -0.25 | -0.65 | -0.35 | 0.91
Mrtf | DRSC08263 | -2.74 | -2.04 | 0.5 | -2.97
Mrtf | DRSC08410 | -1.06 | 1.35 | 0.59 | -1.45
Mrtf | DRSC08411 | 0.38 | -0.61 | 0.43 | -0.92
ATPsynE | DRSC15476 | 0.38 | 0.8 | -0.17 | -0.09
CG33269 | DRSC10585 | -1.51 | -1.77 | 2.12 | -0.39
Papss | DRSC11246 | 0.06 | 0.03 | -0.89 | 0.21
HP6 | DRSC00471 | 0.2 | -0.26 | -0.79 | -1.19
CR18166 | DRSC17260 | 0.46 | 1.18 | 0.1 | -0.47
CR18166 | DRSC18147 | -0.04 | 1.03 | 1.53 | 0.86

As entered above.
Value of CG5111 [DRSC15717] under “replicate 1, z-score of dpERK with insulin”: -0.84
Result for CR18166 [DRSC17260] under “replicate 2, z-score of dpERK with insulin”: 1.18
Under “replicate 1, z-score of ERK-YFP with insulin”, Nrk [DRSC07480] shows -0.17
CG5793 + Obp93a [DRSC15220], replicate 1, z-score of dpERK with insulin: 0.94
CNMaR [DRSC10224], replicate 1, z-score of ERK-YFP with insulin → 0.15

The results go on:
predicted target | DRSC id | replicate 1, z-score of dpERK with insulin | replicate 2, z-score of dpERK with insulin | replicate 1, z-score of dpERK under basal conditions | replicate 1, z-score of ERK-YFP with insulin
spas | DRSC15929 | 1.38 | 0.13 | 2.64 | -1.08
CG43187 | DRSC05607 | 0.76 | 0.75 | 0.79 | 0.61
CG8072 | DRSC10960 | -0.41 | -0.37 | 0.27 | 0.71
Or24a | DRSC00768 | 0.21 | 0.24 | 2.37 | 1.47
Klp3A | DRSC18676 | 0.62 | 0.41 | -0.29 | 0.09
Klp3A | DRSC21625 | 0.17 | -0.02 | 1.3 | 0.15
CG7059 | DRSC16187 | 0.23 | -0.03 | -0.36 | 0.34
Ir40a | DRSC03732 | 0.2 | 0.37 | -0.14 | 0.06
Ir40a | DRSC03733 | -0.29 | -0.38 | -0.99 | -0.01
CG30487 | DRSC05377 | 1.57 | 0.86 | 0.63 | -1.06
CG18278 + CG30059 | DRSC05418 | 0.9 | 0.4 | -0.28 | 0.25
CG12229 | DRSC09868 | 0.13 | 0.21 | -0.83 | -0.55
CG9902 | DRSC20212 | 0.22 | -0.27 | 0.45 | -0.06
CG2246 | DRSC15433 | -0.15 | -0.99 | -0.18 | 0.69
CG17618 (retired record) + CG45049 | DRSC16163 | 1.31 | 0.03 | -0.23 | 0.32
CG17618 (retired record) + CG45049 | DRSC22054 | -0.87 | -1.38 | -1.52 | -2.18
ari-1 | DRSC20308 | 1.01 | 0.5 | -0.12 | 0.27
ari-1 | DRSC21603 | 2.21 | 0.98 | 1.74 | -0.42
CrebB | DRSC20232 | -0.88 | 0.41 | 0.11 | 0.85
Arr2 | DRSC09670 | 0.21 | 0.3 | -0.99 | -0.08
CG12129 | DRSC06105 | 0.28 | 0.46 | 0.06 | 0
Rhp | DRSC20279 | -0.27 | -0.28 | -0.03 | 0.2
cnk | DRSC07595 | -6.5 | -5.13 | -0.29 | 0.05
CG5246 | DRSC15751 | 0.48 | 0.78 | 0.29 | -1.2
